Measured values from PMC8096781.
No constants are given. Whether binding was seen depends on the method and setting. In cells and extracts the contact can be indirect. Binding calls can cover weak binding; strength is not graded here. Sequences can lack the tags named with a protein.

Molecular target: T1, GST-FOXM1D (UniProt Q08050)
T1 sequence: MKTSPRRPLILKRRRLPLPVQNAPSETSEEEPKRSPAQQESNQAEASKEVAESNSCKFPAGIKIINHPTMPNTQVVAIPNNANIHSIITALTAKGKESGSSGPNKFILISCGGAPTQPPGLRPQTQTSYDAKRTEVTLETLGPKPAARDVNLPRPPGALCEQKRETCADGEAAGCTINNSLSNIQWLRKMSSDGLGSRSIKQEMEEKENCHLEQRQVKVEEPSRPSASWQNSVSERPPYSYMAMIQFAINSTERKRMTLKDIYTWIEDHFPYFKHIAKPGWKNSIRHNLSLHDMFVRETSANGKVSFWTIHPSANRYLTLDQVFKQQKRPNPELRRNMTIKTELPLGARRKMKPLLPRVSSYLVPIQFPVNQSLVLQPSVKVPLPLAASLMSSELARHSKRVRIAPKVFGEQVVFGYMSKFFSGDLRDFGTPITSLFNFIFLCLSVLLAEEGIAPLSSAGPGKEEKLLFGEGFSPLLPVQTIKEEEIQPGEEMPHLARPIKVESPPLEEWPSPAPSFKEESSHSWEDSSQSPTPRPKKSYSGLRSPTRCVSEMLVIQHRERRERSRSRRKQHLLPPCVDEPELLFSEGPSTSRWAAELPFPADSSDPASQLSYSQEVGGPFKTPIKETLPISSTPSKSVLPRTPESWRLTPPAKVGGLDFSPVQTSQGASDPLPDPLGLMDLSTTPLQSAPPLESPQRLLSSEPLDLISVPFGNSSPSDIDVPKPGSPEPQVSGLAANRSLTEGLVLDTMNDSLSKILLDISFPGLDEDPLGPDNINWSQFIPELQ
Assay: pull-down; GST-FOXM1D or control GST bound to MagneGST glutathione particles, incubated with lysates of transfected HEK293T cells for 1 h at 4 °C; western blot with anti-HA and anti-PKM2; only the target purified

HA-tagged A1 domain of PKM2 (domain or fragment)
binding: no binding

HA-tagged B domain of PKM2 (domain or fragment)
binding: binds
